Results: patent US20100009439A1
These are yes or no findings as the source states them, for the method shown. Some binding calls cover weakened binding; strength is not graded here.

Molecular target: purified full-length human IGF-I receptor (human), P08069
Assay: ELISA on immobilized IGF-I receptor with prolonged washes
Conditions: remark: other sources report otherwise

binding: binds
B1: murine EM164 antibody (antibody, V domains shown)
VH: QVQLQQSGAELVKPGASVKLSCKASGYTFTSYWMHWVKQRPGQGLEWIGEINPSNGRTNYNEKFKRKATLTVDKSSSTAYMQLSSLTSEDSAVYYFARGRPDYYGSSKWYFDVWGAGTTVTVS
VL: DVLMTQTPLSLPVSLGDQASISCRSSQSIVHSNVNTYLEWYLQKPGQSPKLLIYKVSNRFSGVPDRFSGSGSGTDFTLRISRVEAEDLGIYYCFQGSHVPPTFGGGTKLEIKR
modifications: here or on the partner: biotinylated with PEO-maleimide-biotin in the captured format
